According to PubChem BioAssay AID2685 (National Center for Advancing Translational Sciences (NCATS), 2010):
Some of the results follow. These are further read-outs of the screen, such as a control signal, another cell line or another target. No call is given for them. Most of these compounds were active or inconclusive in the main read-out, so they are no random draw. Words in brackets tell the shape of the fitted curve; partial curves, single points and poor fits give uncertain potencies.

Assay: qHTS Assay for Lipid Storage Modulators in Drosophila S3 Cells;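 for cell number change: cells counted by Cell Tracker Red CMTPX staining in the red channel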
Conditions: BODIPY lipid droplet fluorescence, 18-24 h; for cell number change: measured here: cell count max response, cells fed with added oleic acid
Procedure, shortened: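 Drosophila S3 cells loaded with oleic acid (400 uM, as added) and compounds at several concentrations; lipid droplets imaged by 488-nm laser-scanning cytometry, 500–530 nm intensity and object ratio to cell channel. Percent activity normalized to 20 uM Triacsin C.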

[1] = measured here: lipid fluorescence (Fed channel) AC50, cells fed with added oleic acid
[2] = measured here: cell number channel AC50, cells fed with added oleic acid

SMILES	cell number change [%]	AC50 [1]	AC50 [2]
CCOC(=O)C1CCN(C(=O)COC(=O)c2cccc(F)c2)CC1	86.7	–	–
COc1cc2ccccc2cc1C(=O)Nc1cccnc1	-27	0.651 µM [rising, full curve, poor fit]	–
CCN(CC)c1ccc(NC(=O)C2CCCC2)cc1	-3.81	29.1 µM [falling, single point]	–
O=C(N/C(=C\c1ccco1)C(=O)N1CCOCC1)c1ccco1	8	–	–
CCCc1cc(=O)oc2cc(C)c(CN3CCCC3)c(O)c12	-11.9	32.6 µM [falling, single point]	–
Cn1ccnc1SCC(=O)c1ccc(OC(F)F)cc1	-12.5	–	–
O=C(N/N=C/c1ccco1)c1cccc(S(=O)(=O)Nc2ccccc2Cl)c1	–	29.1 µM [rising, single point]	–
O=C(N1CCOCC1)N1CCN(S(=O)(=O)N2CCOCC2)CC1	-8.65	–	–
O=C(NC1CCN(Cc2ccccc2)CC1)C1CCN(S(=O)(=O)c2ccc(Cl)cc2)CC1	-23.1	–	–
O=CNCc1nc2ccccc2n1CCCc1ccccc1	-3.15	6.51 µM [rising, single point]	–
Cc1ccc2nc(N3CCN(C)CC3)c(C=O)c(=O)n2c1	-10.6	29.1 µM [rising, partial curve, poor fit]	–
CCOC(=O)N1CCN(C(=O)COc2cccc3c2CCN(Cc2ccccc2F)C3=O)CC1	-1.49	29.1 µM [rising, partial curve, poor fit]	–
O=C(CCCN1C(=O)/C(=C\c2cccs2)SC1=S)Nc1ccccn1	-0.877	–	–
CCOC(=O)Cn1c2ccccc2n2nc(CCC(=O)O)c(=O)nc12	97.2	–	–
Cc1ccc(C(=O)CC(=O)c2cccc(F)c2)c(O)c1	-63.8	6.51 µM [rising, single point]	32.6 µM [falling, single point]
CCc1nc2ccc(C(=O)NCCCN3CCN(c4ccc(F)cc4)CC3)cc2nc1CC	8.03	18.4 µM [falling, single point]	–
CCn1c(CSc2nc3ccccc3[nH]2)nc2cc(C(=O)O)ccc21	-7.36	23.1 µM [falling, partial curve]	–
O=C(CCS(=O)(=O)c1ccccc1)Nc1nccs1	2.15	–	–
O=C(COC(=O)/C=C/c1ccc(OC(F)F)cc1)NC(=O)NCc1ccccc1	-30.1	4.11 µM [falling, full curve, poor fit]	29.1 µM [falling, single point]
COc1ccc(CN2CCC(C(=O)Nc3ccc(Oc4cccnc4)cc3)CC2)cc1	-6.51	6.51 µM [rising, single point]	–
COc1ccc(-n2ncc(C(C)NS(=O)(=O)c3cc(F)ccc3C)c2C)cc1 (stereo not given)	–	29.1 µM [falling, single point]	–
O=[N+]([O-])c1cc(C(F)(F)F)ccc1NCCc1c[nH]c2ccc(O)cc12	–	0.731 µM [falling, full curve]	–

Two successive compounds out of the list so far, quoted:
SMILES	cell number change [%]	AC50 [1]	AC50 [2]
O=C(CCCN1C(=O)/C(=C\c2cccs2)SC1=S)Nc1ccccn1	-0.877	–	–
CCOC(=O)Cn1c2ccccc2n2nc(CCC(=O)O)c(=O)nc12	97.2	–	–

Further records.

SMILES	cell number change [%]	AC50 [1]	AC50 [2]
Cn1cc(Cl)c(C(=O)NNC(=S)Nc2cccc(Cl)c2)n1	19.4	29.1 µM [rising, partial curve]	–
CCCCn1c(SCC(=O)c2c(N)n(C3CC3)c(=O)[nH]c2=O)nc2cc(S(N)(=O)=O)ccc21	-17	–	–
C(=N\Nc1nc2ccccc2[nH]1)/c1ccc2c(c1)OCO2	-40.7	29.1 µM [falling, partial curve, poor fit]	0.651 µM [rising, single point]
CCN(CC)c1ccc(CNc2nc3ccccc3n2CCN2CCOCC2)cc1	-47.2	3.98 µM [falling, partial curve, poor fit]	–
O=C(O)CCCNS(=O)(=O)c1ccc2ccccc2c1	0.0443	0.58 µM [falling, full curve]	–
O=C(Nc1ccccc1)N1CCN(c2ccc(C(F)(F)F)cn2)CC1	125	29.1 µM [rising, single point]	29.1 µM [rising, single point]
Cc1nnc(SCC(=O)N(C)CC(=O)Nc2ccc(F)cc2)n1Cc1ccccc1	0.521	–	–
N=c1c(C(=O)NC2CCCCC2)cc2c(=O)n3ccccc3nc2n1CCc1ccccc1	21.8	–	–
O=C(NC1CCCCCCC1)c1ccc2c(c1)OCO2	128	–	2.06 µM [rising, full curve, poor fit]
CN(C)CCCNS(=O)(=O)c1cc(Cl)c(Cl)cc1Cl	44.4	5.17 µM [rising, full curve]	4.11 µM [rising, full curve, poor fit]
COc1ccc(/C=C/C(=O)Nc2cc(C)nn2-c2nc3ccccc3n2Cc2cccc([N+](=O)[O-])c2)cc1	-2.43	0.00461 µM [falling, full curve, poor fit]	–
O=C(Oc1ccc(/C=N/n2cnnc2)cc1)c1cccc([N+](=O)[O-])c1	-29.1	35.5 µM [falling, partial curve, poor fit]	–
COc1ccc(N2CC(C(=O)NCCc3ccc(Cl)cc3)CC2=O)cc1 (stereo not given)	2.38	29.1 µM [rising, single point]	–
c1cnc(N2CC[N+]3(CCCC3)CC2)nc1	-6.48	–	–
c1ccc2c(C3=NNC(=NC4CCCCC4)SC3)c[nH]c2c1	-20.8	5.8 µM [rising, full curve]	–
O=c1cc(N2CCOCC2)[nH]c(=O)n1Cc1ccc(F)cc1	-5.32	0.184 µM [falling, full curve, poor fit]	–
Cc1cc(NC(=O)CSc2nc(CCC3CCCC3)nc3ccccc23)no1	–	–	2.59 µM [rising, single point]
O=C(c1ccc(F)c(S(=O)(=O)N2CCOCC2)c1)N(CCc1ccccc1)Cc1ccccc1	11.5	–	–
CCOC(=O)c1ccc(-n2c(CN3CCOCC3)nc3ccc([N+](=O)[O-])cc3c2=O)cc1	–	0.461 µM [rising, full curve]	0.366 µM [rising, full curve, poor fit]
O=C(CCS(=O)(=O)c1ccc(Br)cc1)NC1CCCC1	-8.24	–	0.58 µM [falling, full curve]
Cc1ccc(C(=O)CSc2nc3cc(S(=O)(=O)N4CCOCC4)ccc3o2)cc1	1.81	–	–
O=C(COC(=O)C1=COCCO1)Nc1cc(S(=O)(=O)N2CCCCC2)ccc1Cl	46.4	–	–

Ordered by number of heavy atoms (high to low): 3 of the compounds above.
SMILES	cell number change [%]	AC50 [1]	AC50 [2]
O=C(c1ccc(F)c(S(=O)(=O)N2CCOCC2)c1)N(CCc1ccccc1)Cc1ccccc1	11.5	–	–
CCN(CC)c1ccc(CNc2nc3ccccc3n2CCN2CCOCC2)cc1	-47.2	3.98 µM [falling, partial curve, poor fit]	–
O=C(O)CCCNS(=O)(=O)c1ccc2ccccc2c1	0.0443	0.58 µM [falling, full curve]	–

(continued)

SMILES	cell number change [%]	AC50 [1]	AC50 [2]
Cc1ccc(S(=O)(=O)NCC(c2cccnc2)N2CCN(Cc3ccccc3)CC2)cc1 (stereo not given)	31.4	29.1 µM [rising, single point]	3.66 µM [rising, full curve]
CCCCN1CC(=O)N2[C@H]3c4cc(Cl)ccc4OC[C@@H]3[C@H](c3ccccc3)[C@]2(C)C1=O	-10.7	0.13 µM [rising, single point]	–
COc1ccc(/C=C/C(=O)OCC(=O)Nc2cc(S(=O)(=O)N(C)C)ccc2Cl)cc1	84.5	–	–
CC1=C(c2ccccc2)C(=S)NC(C)(C)C1	-41.5	–	16.4 µM [falling, single point]
Cc1cccc(N(Cc2cc3ccccc3[nH]c2=O)C(=O)c2cccs2)c1	-29.3	16.4 µM [falling, single point]	–
CCOC(=O)CS(=O)(=O)c1ccc(C(F)(F)F)cn1	-18.6	23.1 µM [falling, partial curve]	0.116 µM [falling, full curve, poor fit]
CC(=O)c1ccc(-c2ccc(C(=O)Nc3nc(C)c(C(C)=O)s3)o2)cc1	-0.627	29.1 µM [rising, single point]	–
O=C(c1ccccc1)c1ccc(-c2ccc(O)cc2)cc1	-7.27	2.06 µM [falling, single point]	–
COc1ccc(-c2nnc(NC(=O)Cc3ccccc3)o2)cc1	61.3	0.58 µM [rising, single point]	29.1 µM [rising, single point]
CCN1CCN(c2cc(C)c3cc(NC(=O)c4ccccc4F)ccc3n2)CC1	–	4.61 µM [rising, partial curve]	2.59 µM [rising, partial curve]
COc1nc(Nc2cccc(F)c2)nc(OC)n1	25.8	–	–
COc1ccc(Cl)cc1NC(=O)CCNS(=O)(=O)c1cccc2nonc12	-18.1	0.206 µM [rising, single point]	–
COc1ccc(OC)c(NC(=O)C2CC(=O)N(Cc3ccco3)C2)c1 (stereo not given)	75	–	29.1 µM [rising, single point]
CC(=O)c1cccc(NC(=O)CSc2ccc(-c3sc(C)nc3C)nn2)c1	-11	4.61 µM [rising, partial curve]	–
NNC(=O)C1CC(O)CN1S(=O)(=O)c1ccc(Cl)cc1 (stereo not given)	1.32	0.00461 µM [falling, full curve, poor fit]	–
Cn1c(=O)c2c3c(sc2n2c(SCC(N)=O)nnc12)CC(C(C)(C)C)CC3 (stereo not given)	-39.7	–	20.6 µM [falling, single point]
COc1ccc(C2=CC(=O)C[C@H](c3ccc4c(c3)OCO4)C2)cc1	-8.1	–	–
CC(C)(C)C(=O)N1CCN(c2ncccc2C(F)(F)F)CC1	31.9	8.2 µM [rising, partial curve, poor fit]	–
Cn1c(-c2ccccc2)cnc1SCc1nc2ccccc2c(=O)[nH]1	–	1.16 µM [rising, partial curve]	2.59 µM [rising, partial curve]
CCOc1ccc(CN(C)CC(=O)Nc2cc(OC)c([N+](=O)[O-])cc2C)cc1	-0.725	0.146 µM [rising, full curve, poor fit]	0.13 µM [rising, full curve, poor fit]
